The text below walks through data of PubChem BioAssay AID651660 (Broad Institute, 2012).

By UniProt entry, the sequences of proteins in these tests, tags left out. Where a name states a change or a piece, a line headed by the entry shows the natural chain unless it says otherwise.
UniProt P43351: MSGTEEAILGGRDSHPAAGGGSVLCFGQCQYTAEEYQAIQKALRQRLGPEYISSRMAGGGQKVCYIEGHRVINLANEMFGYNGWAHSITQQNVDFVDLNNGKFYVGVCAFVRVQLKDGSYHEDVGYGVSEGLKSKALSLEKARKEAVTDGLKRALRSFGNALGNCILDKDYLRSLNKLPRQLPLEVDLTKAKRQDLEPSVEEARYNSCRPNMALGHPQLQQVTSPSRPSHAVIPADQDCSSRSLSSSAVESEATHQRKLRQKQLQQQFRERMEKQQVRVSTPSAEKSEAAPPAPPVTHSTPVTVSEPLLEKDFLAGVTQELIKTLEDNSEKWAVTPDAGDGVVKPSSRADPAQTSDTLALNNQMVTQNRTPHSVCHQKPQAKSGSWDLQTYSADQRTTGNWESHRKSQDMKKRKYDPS

Several values for one entry are separate records, joined by “and”; a condition that tells them apart may be missing. Equal values may be shown once. In all, about 1,900 compounds went through this assay and about 15 (0.8%) were called active.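 How the source made its calls: active means every replicate shows at least 50% inhibition; inconclusive means mean inhibition at least 50% but some replicate below; inactive means the rest.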 This is one part of the list.

For this assay, the target named is DNA repair protein RAD52 homolog (Homo sapiens) (UniProt P43351). The experiment in a line: RAD52 ssDNA annealing inhibitors, primary screen, biochemical, FRET, single point (AID 651660).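 Further: 0% = median of neutral control wells and 100% = median of positive control wells.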 Conditions: Recombinant RAD52 ssDNA annealing, FRET fluorescence, 30 min; at 18.7 µM; active compounds read high.
Regarding `COc1ccccc1C(CCN(Cc1ccccc1)C(C)=O)c1ccco1` (stereo not drawn), the inhibition is inactive: -5.48%.

With `O=C(CCSc1ccccc1)N1CCCC1`, the inhibition is inactive: -12%.

In the case of `CCCCNc1ccc(C(=O)OCCN(C)C)cc1`, the inhibition was inactive: 5.27%.

Take `COc1ccc2[nH]c(=O)c(CN(C(=O)c3ccco3)C(C)C)cc2c1`: the inhibition is inactive: -2.27%.

As to `Cc1ccccc1C(=O)Nc1ccccc1C(=O)NCC(C)C`, the inhibition is inactive: -0.974%.

Consider `O=C(/C=C/c1ccccc1)/C=C/c1ccccc1`, for which the inhibition was inactive: -25.5%.

Regarding `CC(OC(=O)c1cc(=O)[nH]c2ccccc12)C(=O)c1ccccc1` (stereo not drawn), the inhibition is inactive: 1.44%.

Consider `Cc1cnc(C(=O)NCCc2ccc(S(=O)(=O)NC(=O)NC3CCCCC3)cc2)cn1`, for which the inhibition was inactive: -13.1%.

Regarding `CCc1cc2c(=O)c(-c3nc(C)cs3)c(CCCC(=O)O)oc2cc1O`, the inhibition was inactive: -8.02%.

Turning to `CC1(C)C2CCC1(C(=O)O)c1nc3ccccc3nc12` (stereo not drawn), the inhibition was inactive: -6.74%.

Take `Cc1ccsc1/C=C/C1=NCCCN1C`: the inhibition is inactive: 5.97%.

Regarding `COc1ccc(C=O)c(OC)c1`, the inhibition is inactive: 1.28%.

Regarding `Fc1cc(F)cc(NC(=S)NCCCN2CCOCC2)c1`, the inhibition is inactive: -16.2%.

Regarding `CCCCC[C@H](O)/C=C/[C@@H]1[C@@H](C/C=C\CCCC(=O)OC)[C@@H](O)C[C@H]1O`, the inhibition is inactive: 32.3%.

On to `CCN(CC)CCNc1ccc(CO)c2sc3ccccc3c(=O)c12`, for which the inhibition was active: 61.5%.

With `Cc1ccc(O)c(CCc2ccccc2)n1`, the inhibition was inactive: -5.88%.

Take `Cn1nc(-c2ccccn2)nc2c(=O)n(C)c(=O)nc1-2`: the inhibition is inactive: 9.61%.

Consider `CCN(CC)CCOC(=O)C(c1ccccc1)c1ccccc1`, for which the inhibition is inactive: -0.371%.

Turning to `OC(CCCN1CCCCC1)(c1ccccc1)c1ccccc1`, the inhibition is inactive: 10.1%.

For the molecule `COC1(C)CC2C(CC1OC(=O)c1cc([N+](=O)[O-])cc([N+](=O)[O-])c1)C2(C)C` (stereo not drawn), the inhibition is inactive: 2.54%.

As to `COc1ccccc1NC(=O)C12CCC(C)(C(=O)C1)C2(C)C` (stereo not drawn), the inhibition is inactive: -4.76%.

Regarding `C[C@]12CC[C@@H]3c4ccc(OS(=O)(=O)O)cc4CC[C@H]3[C@@H]1CCC2=O`, the inhibition is inactive: 6.12%.

For `Cc1ccc(S(=O)(=O)NC(=O)NN2CCCCCC2)cc1`, the inhibition was inactive: -5.47%.

With `COc1ccc(CCn2c(C)nc3c(c(=O)c4ccccc4n3C)c2=O)cc1`, the inhibition was inactive: -5.51%.

For the molecule `O=c1nc2sc3ccccc3n2c(=O)n1-c1ccc(Cl)cc1`, the inhibition is inactive: 4.32%.

Take `O=C(OCCN1CCOCC1)c1cccs1`: the inhibition was inactive: -2.59%.

As for `CCCC(CCC)C(=O)OC1C[C@H]2CC[C@@H](C1)[N+]2(C)C` (stereo partly drawn), the inhibition was inactive: 2.65%.

With `c1ccc(Cn2ncc3c(Nc4ccccc4)ncnc32)cc1`, the inhibition is inactive: 4.07%.

Take `COc1cc2c(cc1OC)CN(C(=O)c1ccc(S(=O)(=O)N(C)c3ccccc3)cc1)CC2`: the inhibition is inactive: 2.83%.

Consider `CCOc1ccccc1C(=O)NCCC(=O)O`, for which the inhibition was inactive: -11.9%.

Take `Cc1cc(-c2nn(-c3ccccc3F)cc2CN2CCCC(O)C2)c(C)s1` (stereo not drawn): the inhibition was inactive: -16.4%.

In the case of `OCCN(Cc1nc(-c2ccc3c(c2)OCO3)no1)Cc1cccs1`, the inhibition was inactive: 2.4%.

For the molecule `Cc1cc(-c2ccccc2)nnc1NCCN1CCOCC1`, the inhibition is inactive: -6.44%.

`OC[C@H]1O[C@@H](n2cnc3c(Nc4ccccc4)ncnc32)[C@H](O)[C@@H]1O`: the inhibition is inactive: 1.34%.

Regarding `C=CCNC(=S)N1CCc2c([nH]c3ccccc23)C1C` (stereo not drawn), the inhibition is inactive: -6.75%.

As to `Cc1nonc1CN(C)C(=O)c1ccc(OC2CCN(Cc3ccccn3)CC2)cc1`, the inhibition is inactive: -15.3%.

As for `COc1ccc(-c2onc(C)c2-c2ccc(C(=O)OC(C)C)o2)c(O)c1`, the inhibition is inactive: 9.48%.

As to `O=C(Oc1cccccc1=O)c1ccccc1`, the inhibition was inactive: -11.3%.

For `Cn1c2c(c(=O)[nH]c1=O)C(c1ccc(O)cc1)C1=C(N2)c2ccccc2C1=O` (stereo not drawn), the inhibition is inactive: 43.2%.

Regarding `CN(C)CCOCCOc1ccc(Cl)cc1Br`, the inhibition was inactive: -5.5%.

For the molecule `O=c1c2ccccc2nc2n1-c1ccccc1CCC2`, the inhibition was inactive: 6.7%.

Turning to `O=C(O)CCCCCN1C(=O)C(=O)/C(=C(/O)c2ccccc2)C1c1ccccc1` (stereo not drawn), the inhibition is inactive: -8.36%.

With `CCc1ccc(CN(C)Cc2nc(Cc3ccccc3)no2)nc1`, the inhibition is inactive: -14.8%.

Take `CC(C)(C)c1ccc(C(O)CCCN2CCC(C(O)(c3ccccc3)c3ccccc3)CC2)cc1` (stereo not drawn): the inhibition was inactive: 44.9%.

On to `CC(COc1ccccc1)NC(C)C(O)c1ccc(O)cc1` (stereo not drawn), for which the inhibition is inactive: -0.424%.

As to `CC(=O)Nc1nc(CCC(C)C)cc2c1c(=O)oc1ccccc12`, the inhibition is inactive: -7.69%.

Turning to `c1ccc(Cn2nnc3cnccc32)cc1`, the inhibition was inactive: -0.564%.

Regarding `CCOc1ccc(C(=O)/C=C/c2cc(OC)c(OC)c(OC)c2)cc1`, the inhibition was inactive: 1.6%.

On to `CCOc1cc2c(cc1OCC)C(c1ccccc1)N(c1ccc(C(=O)O)cc1)C(=O)C2` (stereo not drawn), for which the inhibition is inactive: -2.63%.

In the case of `O=C(CCN1CCC(c2ccccc2)C1)c1ccc2c(c1)OCCO2` (stereo not drawn), the inhibition is inactive: -11%.

As for `Nc1ccn([C@@H]2O[C@H](CO)[C@@H](O)[C@@H]2O)c(=O)n1`, the inhibition was inactive: -3.65%.

Turning to `COc1cc2c(cc1OC)-c1cc(NC3CCCCCC3)nc(=O)n1CC2`, the inhibition was inactive: 5.06%.

For the molecule `NC(N)=N/N=C/c1cccc(Cl)c1Cl`, the inhibition was inactive: 18.4%.

As to `COc1ccc(NC(=O)CC2C(=O)N(C)C(=S)N2Cc2ccncc2)cc1` (stereo not drawn), the inhibition is inactive: -3.48%.

Take `COc1ccc(CC(=O)c2c(O)cc(O)cc2O)cc1OC`: the inhibition is inactive: -0.069%.

With `COc1ccc(CCN=CC2=C(O)CC(C)(C)CC2=O)cc1`, the inhibition was inactive: -6.68%.

For `C=CCNC(=O)c1ccc(-c2cccc([N+](=O)[O-])c2)o1`, the inhibition is inactive: -3.04%.

As to `CC(C)CCC1(CCNC(C)c2cccs2)CCOC(C)(C)C1` (stereo not drawn), the inhibition was inactive: 12.3%.

As for `C[C@@H]1C[C@H]2[C@@H]3C[C@H](F)C4=CC(=O)C=C[C@]4(C)[C@@]3(F)[C@@H](O)C[C@]2(C)[C@@]1(O)C(=O)COC(=O)C(C)(C)C`, the inhibition is inactive: -1.88%.

For the molecule `O=c1[nH]cnc2c1ncn2[C@@H]1O[C@H](CO)[C@@H](O)[C@H]1O`, the inhibition is inactive: -0.469%.

Consider `CCc1nc2ccccc2n1Cc1ccc(OC)c(OC)c1`, for which the inhibition was inactive: 4.94%.

Consider `O=C1C(=O)N2C(=C1C(=O)N1CCCCCC1)c1ccccc1CC21CCCC1`, for which the inhibition is inactive: -1.31%.

For `O=C(CN1C(=O)c2ccccc2C1=O)Nc1cccc([N+](=O)[O-])c1`, the inhibition was inactive: -5.56%.

For `O=C(O)C[C@@H](O)C(=O)O`, the inhibition is inactive: -9.88%.

In the case of `CC1(C)CC(CNCCC(c2ccc(F)cc2)c2ccco2)CCO1` (stereo not drawn), the inhibition is inactive: -2.26%.

Regarding `O=c1ccc2ccccc2o1`, the inhibition was inactive: -5.43%.

Consider `CC(=O)Oc1ccc2occ(/C=N/c3cc(=O)[nH]c(=S)[nH]3)c(=O)c2c1`, for which the inhibition was inactive: -4.77%.

`COc1ccc(C(=O)Nc2cccc3cccnc23)cc1OC`: the inhibition was inactive: -4.56%.

Consider `CN(C)CCCN1c2ccccc2Sc2ccc(Cl)cc21`, for which the inhibition is active: 68.5%.

Regarding `COc1ccc(Cc2noc(CN(C)CC3(N4CCOCC4)CCCCC3)n2)cc1OC`, the inhibition is inactive: -1.7%.

As to `Cc1cccc(-c2ncc(CN3CCN(CC(C)C)C(CCO)C3)cn2)c1` (stereo not drawn), the inhibition was inactive: -4.02%.

Regarding `COC1CCN(Cc2cn(Cc3ccccc3)nc2-c2cc3ccccc3o2)CC1`, the inhibition is inactive: 3.29%.

As for `COc1ccc(C2C3=C(OC(C)=O)c4ccccc4C3=Nc3c2c(=O)n(C)c(=O)n3C)cc1` (stereo not drawn), the inhibition was inactive: 0.172%.

On to `Cc1ccccc1-c1nn(-c2ccc(F)cc2F)cc1CNCCN(C)C`, for which the inhibition was inactive: 28.7%.

In the case of `O=C1NC(=O)C(c2ccccc2)(c2ccccc2)N1`, the inhibition is inactive: -3.63% and inactive: -5.42%.

In the case of `Cc1ccc2c(c1)C(O)(C1COC(C)(C)CC1=O)C(=O)N2C` (stereo not drawn), the inhibition was inactive: -1%.

For `O=C1NCC2=C1C(c1ccccc1)Nc1ccccc1N2` (stereo not drawn), the inhibition is inactive: -23.8%.

Turning to `c1ccc(CNc2ncnc3nc[nH]c23)cc1`, the inhibition was inactive: -12.3%.

With `Fc1ccc(-c2cc(-c3ccccc3)nc(-n3cccn3)n2)cc1`, the inhibition is inactive: 4.31%.

For the molecule `CC(C)Cc1nc(NCCN2CCOCC2)c(C#N)c2c1COC(C)(C)C2`, the inhibition was inactive: -1.59%.

Regarding `O=c1nc2cccc3c2=c(/c1=C(\O)c1ccccc1)c1ccccc1c3=O`, the inhibition was inactive: -39.8%.

Consider `CN1CCCC(OC(=O)c2ccc3c(c2)OCCO3)C1` (stereo not drawn), for which the inhibition is inactive: -6.43%.

As to `Cc1c2c(nc3c(C)cccc13)OC(C)C2` (stereo not drawn), the inhibition is inactive: -9.22%.

For `COC(=O)c1ccccc1NC(=O)c1ccc(COc2ccc3c(c2)CCC3)cc1`, the inhibition was inactive: -2.33%.

As for `COc1ccccc1OCC(O)COC(N)=O` (stereo not drawn), the inhibition was inactive: 1.94%.

Take `CN(C)C(=O)Oc1ccc[n+](C)c1`: the inhibition was inactive: -8.1%.

For the molecule `CC(=O)CCc1c(C)c2cccc(C)c2[nH]c1=O`, the inhibition is inactive: -2.19%.

Consider `COc1cc2c(cc1OC)C(Cc1ccc(O)cc1)N(C)CC2` (stereo not drawn), for which the inhibition is inactive: 9.02%.

As to `COc1ccc2[nH]c(=O)c(CNC3CCCCC3)cc2c1`, the inhibition is inactive: -12.3%.

As for `O=C(c1ccc(O)cc1)c1ccc(O)cc1O`, the inhibition is inactive: -19.8%.

For `COc1ccccc1C(=O)c1cc2ccc(O)cc2oc1=O`, the inhibition was inactive: -18%.

Take `Cc1ccc(S(=O)(=O)Oc2ccccc2/C=N/N=C(N)N)cc1`: the inhibition is inactive: 12.8%.

In the case of `CNc1nc(N(C)C)nc(N(C)C)n1`, the inhibition was inactive: -6.93%.

With `COc1ccc(C(=O)/C=C/c2cc(C(=O)O)cc3c2OCOC3)c(O)c1`, the inhibition was inactive: -15.9%.

Take `CCc1cc2c(=O)c(-c3ccc(F)cc3)c(C)oc2cc1OCC(=O)O`: the inhibition was inactive: -10.9%.

Regarding `O=C(O)CP(=O)(O)O`, the inhibition was inactive: 6.02%.

Consider `CCOC(=O)Cn1c(C)cc(=O)c2ccccc21`, for which the inhibition is inactive: 3.5%.

Regarding `CC(=O)OCC(=O)[C@H]1CC[C@H]2[C@@H]3CCC4=CC(=O)CC[C@]4(C)[C@H]3CC[C@]12C`, the inhibition was inactive: -0.53%.
